The values that follow come from publication doi:10.1101/2020.08.27.270058.

For experiment [1], the target named is T1, MglB^ΔCT (Myxococcus xanthus) (UniProt Q1DB03).
T1 sequence: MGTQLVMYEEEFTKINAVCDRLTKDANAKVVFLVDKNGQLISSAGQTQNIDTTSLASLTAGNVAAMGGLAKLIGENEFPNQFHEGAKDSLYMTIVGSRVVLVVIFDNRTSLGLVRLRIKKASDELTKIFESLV
Kind of experiment: SEC. Background: In gel filtration, larger molecules generally elute earlier.

In experiment [2] the target is T1, MglB^ΔCT (Myxococcus xanthus). Put plainly: SAXS.

Results are given in words; binding and its absence hold for the method and conditions named. Binding can be weak; no strength is given.

Regarding MglC (Myxococcus xanthus), the binding entry in experiment [1] and in experiment [2] was “binds” each time.
